Assay results published in patent US20180072816A1.
Results are given in words; binding and its absence hold for the method and conditions named. Some results given as binding are weak or reduced against the parent protein; the word gives no strength.

Protein sequences, listed by entry. Tags and fused reporters are not part of them. Lines headed by an entry give the natural chain unless they say otherwise; changes in a name come on top.
UniProt P61073: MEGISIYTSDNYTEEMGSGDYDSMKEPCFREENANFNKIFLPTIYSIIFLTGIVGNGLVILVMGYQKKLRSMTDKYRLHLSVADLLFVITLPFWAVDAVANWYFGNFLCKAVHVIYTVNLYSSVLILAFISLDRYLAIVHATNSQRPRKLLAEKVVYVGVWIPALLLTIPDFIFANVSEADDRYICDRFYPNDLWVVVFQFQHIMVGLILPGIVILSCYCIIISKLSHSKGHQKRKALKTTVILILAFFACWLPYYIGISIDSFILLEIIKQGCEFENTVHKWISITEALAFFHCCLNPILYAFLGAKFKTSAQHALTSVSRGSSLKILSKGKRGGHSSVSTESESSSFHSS

Target: human CXCR4 (human) (UniProt P61073)
Assay: phage display selection on hCXCR4 lipoparticles or CXCR4 positive cells

B1: ADCX-668 (designed binder)
chain: LQVDIVPSQGEISVGESKFFLCQVAGTIWYEQISWFTPNGEKLTPNQQRISVVWNDDSSSTLTIYNANIDDAGIYKCVVWTRPVTSSMHEATVNVKIFQ
binding: binds
